Test results from PubChem BioAssay AID1487 (National Center for Advancing Translational Sciences (NCATS), 2009).
This is one part of the list. Shown are side measurements of this screen, not its main read-out; they come without a call. Compounds called inactive in the main read-out are mostly missing here. Words in brackets tell the shape of the fitted curve; partial curves, single points and poor fits give uncertain potencies.

Experiment: qHTS Assay for Modulators of Lamin A Splicing
Details: HeLa LMNA splicing GFP/RFP minigene ratio, 48 h
Summary of the method: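 S3 HeLa stable clones carrying a lamin A-EGFP splicing minigene plus DsRed2 were seeded at 600 cells/well in Opti-MEM with 2% FBS, pin-dosed and incubated 48 h at 37°C. Acumen cytometry (488 nm) gave the GFP/RFP total-intensity ratio.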

[1] = measured here: GFP splicing reporter channel
[2] = measured here: RFP viability control channel

Row | Structure (SMILES) | AC50 [1] | AC50 [2]
1 | O=C(Nc1ncccn1)c1cc(-c2cccc(Br)c2)nc2ccccc12 | 17.8 µM [rising, single point] | 31.6 µM [rising, single point]
2 | COc1c(O)cc2oc3cc(O)c(CC=C(C)C)c(O)c3c(=O)c2c1CC=C(C)C | 35.5 µM [falling, single point] | 
3 | O=C(Nc1ccc(Cl)c(Cl)c1)OCCNC(=O)c1cccc(Cl)c1 | 12.6 µM [rising, partial curve, poor fit] | 15.8 µM [rising, single point]
4 | CSc1nsc(/C=C/Nc2ccc(C)cc2)c1C#N | 6.31 µM [rising, partial curve] | 
5 | O=S(=O)(c1cccc2nonc12)N1CCN(c2ccccc2F)CC1 | 14.1 µM [falling, partial curve] | 8.91 µM [falling, partial curve, poor fit]
6 | O=C1C=CC(=O)N1CCNc1ncc(C(F)(F)F)cc1Cl | 7.08 µM [falling, partial curve] | 7.08 µM [falling, partial curve, poor fit]
7 | COc1ccc(-c2csc(NC(=O)c3ccccc3NS(=O)(=O)c3ccc(C)cc3)n2)cc1 |  | 3.55 µM [rising, full curve]
8 | CC(=O)Nc1ccc(NC(=O)C(C)OC(=O)C2(c3ccc(Cl)cc3)CCCC2)cc1 (centres undefined) |  | 14.1 µM [rising, single point]
9 | CCOC(=O)c1nnn(-c2nonc2N)c1CSc1ccc(C)cc1 | 14.1 µM [rising, partial curve] | 12.6 µM [rising, partial curve]
10 | Cc1cc(=O)c2c(O)c(O)ccc2o1 | 15.8 µM [falling, partial curve] | 11.2 µM [falling, partial curve]
11 | CN1CCN(C(=S)c2ccc(OCC(=O)Nc3cccc(C(F)(F)F)c3)cc2)CC1 | 7.94 µM [rising, partial curve, poor fit] | 12.6 µM [rising, partial curve]
12 | c1ccc(-n2nnnc2Sc2ncnc3sc4c(c23)CCCC4)cc1 |  | 0.1 µM [rising, full curve]
13 | COc1ccc(-c2noc(N3CCC(C(=O)N4CCN(c5ccccc5F)CC4)CC3)n2)cc1 | 11.2 µM [falling, partial curve, poor fit] | 10 µM [falling, partial curve, poor fit]
14 | C1CC2CN(c3nc4nonc4nc3N3CCSCC3)CCN2C1 (centres undefined) | 35.5 µM [falling, partial curve, poor fit] | 0.0112 µM [falling, full curve, poor fit]
15 | O=C(Nc1ccc(Cl)c(Cl)c1)C1CC(=O)N(c2ccc(Br)cc2)C1 (centres undefined) | 22.4 µM [falling, single point] | 22.4 µM [falling, single point]
16 | Cc1nn2c(=O)cc(COC(=O)c3ccco3)nc2s1 |  | 0.0178 µM [falling, full curve, poor fit]
17 | S=c1[nH]nc(-c2cccnc2)n1/N=C/C(Cl)=C\c1ccccc1 | 17.8 µM [rising, partial curve, poor fit] | 12.6 µM [rising, partial curve]
18 | CC1(C)NC(=O)N(CCOc2cccc(Oc3ccccc3)c2)C1=O | 12.6 µM [rising, partial curve] | 20 µM [rising, single point]
19 | CC(C)(CNC(=O)c1ccc([N+](=O)[O-])c(Cl)c1)CNC(=O)c1ccc([N+](=O)[O-])c(Cl)c1 | 28.2 µM [falling, single point] | 22.4 µM [falling, single point]
20 | CCn1cc(Br)c(C(=O)Nc2ccc(C(=O)OC(C)C)cc2)n1 | 14.1 µM [rising, single point] | 
21 | CCOC(=O)c1c(-c2ccc(C)cc2)csc1NC(=O)c1cc2ccccc2oc1=O | 3.16 µM [falling, single point] | 8.91 µM [falling, single point]
22 | COc1ccc(S(=O)(=O)N2CCCCC2)cc1NC(=O)c1ccc([N+](=O)[O-])o1 |  | 0.562 µM [rising, full curve, poor fit]
23 | C=CCn1c(O)c(N=NC(=S)Nc2cccc(OC)c2)c2ccccc21 | 7.94 µM [rising, partial curve] | 10 µM [rising, partial curve]
24 | CC(C)(c1ccccc1)c1ccc(OCCCNCCO)cc1 | 7.08 µM [rising, partial curve, poor fit] | 
25 | CCC(=O)N1c2ccccc2CC1C(=O)N1CCN(c2cccc(Cl)c2)CC1 (centres undefined) |  | 12.6 µM [rising, partial curve, poor fit]
26 | Cc1ccc(C2=NNC(=Nc3ccc(F)cc3)SC2)cc1 |  | 35.5 µM [rising, single point]

Part of the list above in a different format.
Row	Structure (SMILES)	AC50 [1]	AC50 [2]
9	CCOC(=O)c1nnn(-c2nonc2N)c1CSc1ccc(C)cc1	14.1 µM [rising, partial curve]	12.6 µM [rising, partial curve]
10	Cc1cc(=O)c2c(O)c(O)ccc2o1	15.8 µM [falling, partial curve]	11.2 µM [falling, partial curve]

The list continues.

Row | Structure (SMILES) | AC50 [1] | AC50 [2]
27 | Brc1ccc(COc2ncnc3ccccc23)cc1 |  | 7.94 µM [falling, partial curve, poor fit]
28 | COc1ccc(NC(=S)N2CCN(C/C=C/c3ccccc3)CC2)cc1 |  | 35.5 µM [rising, single point]
29 | COCc1nnc(NC(=O)c2ccc(S(=O)(=O)N(C)C3CCCCC3)cc2)o1 |  | 14.1 µM [rising, partial curve]
30 | CC(C)n1cc(C(=O)c2cc(Br)ccc2O)cc(C#N)c1=O |  | 35.5 µM [rising, single point]
31 | COc1ccc(OCCN2CCN(C3CC(=O)N(CCC(C)C)C3=O)CC2)cc1 (centres undefined) | 11.2 µM [rising, partial curve, poor fit] | 12.6 µM [rising, single point]
32 | COCCCN(C(=S)Nc1ccc(C)cc1Cl)C(C)c1ccncc1 (centres undefined) | 31.6 µM [rising, single point] | 25.1 µM [rising, single point]
33 | CN1CCN(C(=O)/C=C/c2ccc([N+](=O)[O-])cc2)CC1 | 0.02 µM [rising, full curve, poor fit] | 
34 | CC(=O)c1ccc(NC(=O)Nc2ccc(NS(=O)(=O)c3ccc(C)cc3)cc2)cc1 | 35.5 µM [rising, single point] | 22.4 µM [rising, partial curve, poor fit]
35 | CC(C)(C)c1nnc(N/N=C/c2cc(Br)ccc2O)n(N)c1=O | 35.5 µM [falling, single point] | 3.16 µM [falling, single point]
36 | Cc1cc(OCC(=O)Nc2ccc3c(c2)OCCO3)ccc1Cl | 35.5 µM [rising, single point] | 31.6 µM [rising, single point]
37 | CCOC(=O)N1CCC(=NNc2ccc(S(N)(=O)=O)cc2[N+](=O)[O-])CC1 |  | 0.00562 µM [falling, full curve, poor fit]
38 | O=C1CCCC2=C1C(c1ccc(O)c(O)c1)Nc1ccc3ncccc3c12 (centres undefined) |  | 10 µM [rising, partial curve]
39 | NS(=O)(=O)c1ccc(CNC(=S)NCc2ccc(Cl)cc2)cc1 | 31.6 µM [rising, single point] | 
40 | COc1cc2[nH]c(=O)c(C(=O)NCCCN3CCOCC3)c(O)c2cc1OC |  | 0.282 µM [falling, full curve]
41 | COc1ccc(C(=O)c2oc3nc(C)cc(C)c3c2N)cc1 | 12.6 µM [rising, single point] | 17.8 µM [rising, single point]
42 | N#Cc1c(C(F)(F)F)cc(-c2cccc(Cl)c2)[nH]c1=O |  | 12.6 µM [rising, partial curve]
43 | CCCCCOC(=O)c1[nH]c2c(c1C)C(=O)C(C(=O)OC)C(C)C2 (centres undefined) |  | 12.6 µM [rising, single point]
44 | Cc1ccc(CNC(=O)c2sc3nc4c(c(C(F)(F)F)c3c2N)CCC4)cc1 | 15.8 µM [rising, single point] | 25.1 µM [rising, single point]
45 | O=C(CSc1nc(-c2ccc(F)cc2)cs1)Nc1ccccn1 |  | 3.98 µM [falling, single point]
46 | COc1ccc(N2C(=O)CC(Sc3n[nH]c(-c4ccc(C)cc4)n3)C2=O)cc1 (centres undefined) | 35.5 µM [falling, single point] | 22.4 µM [falling, single point]
47 | COc1nc(SC)nc(Cl)c1Cc1ccc(OC(C)C)cc1 |  | 35.5 µM [rising, single point]
48 | COc1ccc2nc(Nc3nc(CSc4nc5ccccc5[nH]4)cc(=O)[nH]3)nc(C)c2c1 | 35.5 µM [falling, single point] | 31.6 µM [falling, single point]
49 | O=C(C1CCCN(S(=O)(=O)c2ccc(F)cc2)C1)N(Cc1cccs1)C1CC1 (centres undefined) | 5.62 µM [rising, partial curve] | 15.8 µM [rising, partial curve]
50 | O=C(Nc1nc(-c2ccccn2)cs1)C1COc2ccccc2O1 (centres undefined) |  | 31.6 µM [rising, single point]
51 | Cc1cccc(NC(=O)c2ccc(COc3ccc(Cl)cc3Cl)o2)n1 | 15.8 µM [rising, single point] | 25.1 µM [rising, single point]
52 | CCC1CN(C(=O)N2CCC(C(=O)NCc3ccc(N(C)C)cc3)CC2)c2ccccc2O1 (centres undefined) | 2.82 µM [rising, full curve, poor fit] | 7.08 µM [rising, partial curve, poor fit]
